Measured values: the supplement of paper PMC10077471
The full ranking holds about 1,900 compounds; the median of “excess over highest single agent (ExcessHSA) synergy score, 6x6 matrix” is about -83, and the lowest 2% start at about -370. The list shows a part of the results.

test system: NCI-H446; test: excess over highest single agent (ExcessHSA) synergy score, 6x6 matrix; higher = less synergy (more negative = stronger synergy); conditions: 72 h; CellTiter-Glo viability

Structure (SMILES)	excess over highest single agent
Cc1nc(N)ncc1-c1nc(N2CCOCC2)c2sc(C(C)(C)O)cc2n1 + Cc1sc2c(c1C)C(c1ccc(Cl)cc1)=N[C@@H](CC(=O)OC(C)(C)C)c1nnc(C)n1-2 [NCGC00250412-19]	-337
CC1=C[C@@H]2[C@H]([C@@H](O)C[C@@]3(C)[C@H]2C[C@@H](C)[C@]3(O)C(=O)CO)[C@@]2(C)Cc3cnn(-c4ccccc4)c3C=C12 + Cc1sc2c(c1C)C(c1ccc(Cl)cc1)=N[C@@H](CC(=O)OC(C)(C)C)c1nnc(C)n1-2 [NCGC00250412-19]	-73.1
O=C(O)[C@@H](c1ccc(OCc2ccc3ccccc3n2)cc1)C1CCCC1 + Cc1sc2c(c1C)C(c1ccc(Cl)cc1)=N[C@@H](CC(=O)OC(C)(C)C)c1nnc(C)n1-2 [NCGC00250412-19]	-31.3
COc1ccc(S(=O)(=O)N(C(C)=O)c2ccccc2/C=C/c2cc[n+]([O-])cc2)cc1 + Cc1sc2c(c1C)C(c1ccc(Cl)cc1)=N[C@@H](CC(=O)OC(C)(C)C)c1nnc(C)n1-2 [NCGC00250412-19]	-347
C[N+]1(C)[C@@H]2C[C@@H](OC(=O)[C@H](CO)c3ccccc3)C[C@H]1[C@@H]1O[C@@H]12 + Cc1sc2c(c1C)C(c1ccc(Cl)cc1)=N[C@@H](CC(=O)OC(C)(C)C)c1nnc(C)n1-2 [NCGC00250412-19]	-73.8
O=C(NOC[C@H](O)CO)c1ccc(F)c(F)c1Nc1ccc(I)cc1F + Cc1sc2c(c1C)C(c1ccc(Cl)cc1)=N[C@@H](CC(=O)OC(C)(C)C)c1nnc(C)n1-2 [NCGC00250412-19]	-276
Cc1ccccn1.N.[Cl-].[Cl-].[Pt+2] + Cc1sc2c(c1C)C(c1ccc(Cl)cc1)=N[C@@H](CC(=O)OC(C)(C)C)c1nnc(C)n1-2 [NCGC00250412-19]	123
Cc1cc([C@@H](C)Nc2ccccc2C(=O)O)c2nc(N3CCOCC3)cc(=O)n2c1 + Cc1sc2c(c1C)C(c1ccc(Cl)cc1)=N[C@@H](CC(=O)OC(C)(C)C)c1nnc(C)n1-2 [NCGC00250412-19]	-344
CC(C)=CCC/C(C)=C/CC/C(C)=C/CC/C(C)=C/CC/C(C)=C/CC/C(C)=C/CC/C(C)=C/CC/C(C)=C/CC/C(C)=C/CO + Cc1sc2c(c1C)C(c1ccc(Cl)cc1)=N[C@@H](CC(=O)OC(C)(C)C)c1nnc(C)n1-2 [NCGC00250412-19]	-200
O=C(O)/C=C/c1ccc(Cn2ccnc2)cc1 + Cc1sc2c(c1C)C(c1ccc(Cl)cc1)=N[C@@H](CC(=O)OC(C)(C)C)c1nnc(C)n1-2 [NCGC00250412-19]	-116
